Source: PubChem BioAssay AID1224827 (NIAID, 2016)

- Purpose: 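Confirm genes whose knock-down changes LPS-driven TNF promoter activity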 (follow-up of hits)
- System: RAW264.7 G9 mouse macrophage reporter clone
- Reagent: single siRNA against mouse genes, 100 nM siRNA
- Time to read-out: siRNA for 2 days, then LPS about 16 h
- Challenge: bacterial lipopolysaccharide (LPS), 10 ng/ml, cells fixed after overnight (about 16 h) stimulation
- Detection: 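Imaged nuclear TNF reporter intensity, background removed, scaled per plate and to non-targeting control wells, as z-scores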
- Reading the numbers: TNF reporter z-score, mean: higher = stronger Tnf promoter reporter signal
- Rule for the call: 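An siRNA is called active when its mean z-score over replicates is at least +2 or at most -2; control wells get no call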
The whole screen tested about 3,800 reagents; shown is a part drawn at random. About 2,200 of all reagents (57%) were called active. 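Active means a strong reporter change in either direction; calls are per siRNA, not per gene; qiagen siRNAs gave weaker effects.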 Unmarked entries are inactive. Not all columns of the deposit are shown.

gene knocked down,PubChem SID,"TNF reporter z-score, mean"
Fpr1 (formyl peptide receptor 1),SID315484164,-3.17 (active)
Fpr1 (formyl peptide receptor 1),SID315484165,-4.17 (active)
Fpr1 (formyl peptide receptor 1),SID315484166,-4.71 (active)
Fpr1 (formyl peptide receptor 1),SID315484167,5.46 (active)
Fpr1 (formyl peptide receptor 1),SID315484168,1.86
Fpr1 (formyl peptide receptor 1),SID315484169,-0.894
Cks1b (CDC28 protein kinase 1b),SID315485673,-2.02 (active)
Cks1b (CDC28 protein kinase 1b),SID315485674,-2.74 (active)
Cks1b (CDC28 protein kinase 1b),SID315485675,-4.26 (active)
Cks1b (CDC28 protein kinase 1b),SID315485676,3.47 (active)
Cks1b (CDC28 protein kinase 1b),SID315485677,2.04 (active)
Cks1b (CDC28 protein kinase 1b),SID315485678,-1.76
"Tnfrsf25 (tumor necrosis factor receptor superfamily, member 25)",SID315487215,1.81
"Tnfrsf25 (tumor necrosis factor receptor superfamily, member 25)",SID315487216,-2.58 (active)
"Tnfrsf25 (tumor necrosis factor receptor superfamily, member 25)",SID315487217,-4.62 (active)
"Tnfrsf25 (tumor necrosis factor receptor superfamily, member 25)",SID315487218,4.59 (active)
"Tnfrsf25 (tumor necrosis factor receptor superfamily, member 25)",SID315487219,1.64
"Tnfrsf25 (tumor necrosis factor receptor superfamily, member 25)",SID315487220,-2.56 (active)
Iqcc (IQ motif containing C),SID315488340,0.399
Iqcc (IQ motif containing C),SID315488341,-4.97 (active)
Iqcc (IQ motif containing C),SID315488342,-5.49 (active)

Reformatted: entries from further up.
Cks1b (CDC28 protein kinase 1b) [SID315485675] — TNF reporter z-score, mean = -4.26 (active)
Cks1b (CDC28 protein kinase 1b) [SID315485676] — TNF reporter z-score, mean = 3.47 (active)
Cks1b (CDC28 protein kinase 1b) [SID315485677] — TNF reporter z-score, mean = 2.04 (active)
Cks1b (CDC28 protein kinase 1b) [SID315485678] — TNF reporter z-score, mean = -1.76
Tnfrsf25 (tumor necrosis factor receptor superfamily, member 25) [SID315487215] — TNF reporter z-score, mean = 1.81
Tnfrsf25 (tumor necrosis factor receptor superfamily, member 25) [SID315487216] — TNF reporter z-score, mean = -2.58 (active)

Continued:
gene knocked down,PubChem SID,"TNF reporter z-score, mean"
Prmt5 (protein arginine N-methyltransferase 5),SID315485385,-2.21 (active)
Prmt5 (protein arginine N-methyltransferase 5),SID315485386,-2.93 (active)
Prmt5 (protein arginine N-methyltransferase 5),SID315485387,-3.22 (active)
Prmt5 (protein arginine N-methyltransferase 5),SID315485388,4.16 (active)
Prmt5 (protein arginine N-methyltransferase 5),SID315485389,2.78 (active)
Prmt5 (protein arginine N-methyltransferase 5),SID315485390,0.623
Adsl (adenylosuccinate lyase),SID315483684,-1.19
Adsl (adenylosuccinate lyase),SID315483685,-2.98 (active)
Adsl (adenylosuccinate lyase),SID315483686,-4.43 (active)
Adsl (adenylosuccinate lyase),SID315483687,3.42 (active)
Adsl (adenylosuccinate lyase),SID315483688,2.3 (active)
Adsl (adenylosuccinate lyase),SID315483689,0.377
"Pcdhgc4 (protocadherin gamma subfamily C, 4)",SID315487311,-1.43
"Pcdhgc4 (protocadherin gamma subfamily C, 4)",SID315487312,-2.12 (active)
"Pcdhgc4 (protocadherin gamma subfamily C, 4)",SID315487313,-3.74 (active)
"Pcdhgc4 (protocadherin gamma subfamily C, 4)",SID315487314,4.81 (active)
"Pcdhgc4 (protocadherin gamma subfamily C, 4)",SID315487315,1.45
"Pcdhgc4 (protocadherin gamma subfamily C, 4)",SID315487316,-2.03 (active)
Rps6kc1 (ribosomal protein S6 kinase C1),SID315488904,-0.501
Rps6kc1 (ribosomal protein S6 kinase C1),SID315488905,-0.756
Rps6kc1 (ribosomal protein S6 kinase C1),SID315488906,-3.29 (active)
Rps6kc1 (ribosomal protein S6 kinase C1),SID315488907,3.89 (active)
Rps6kc1 (ribosomal protein S6 kinase C1),SID315488908,1.27
Rps6kc1 (ribosomal protein S6 kinase C1),SID315488909,1.41
Mrps10 (mitochondrial ribosomal protein S10),SID315486273,11.5 (active)
Mrps10 (mitochondrial ribosomal protein S10),SID315486274,-0.445
Mrps10 (mitochondrial ribosomal protein S10),SID315486275,-4.68 (active)
Mrps10 (mitochondrial ribosomal protein S10),SID315486276,2.82 (active)
Mrps10 (mitochondrial ribosomal protein S10),SID315486277,0.226
Mrps10 (mitochondrial ribosomal protein S10),SID315486278,-0.179
Rit2 (Ras-like without CAAX 2),SID315484788,-1.95
Rit2 (Ras-like without CAAX 2),SID315484789,-2.67 (active)
Rit2 (Ras-like without CAAX 2),SID315484790,-4.01 (active)
Rit2 (Ras-like without CAAX 2),SID315484791,1.77
Rit2 (Ras-like without CAAX 2),SID315484792,2.45 (active)
Rit2 (Ras-like without CAAX 2),SID315484793,-0.468
